The record followed here is the supplement of paper PMC8256030.

This is one part of the list. This data set is noisy: repeats of one test often differ as much as different tests do.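 HEK293T cells were given each compound shortly before transfection with a reporter in which red mCherry is followed by the SARS-CoV-2 frameshift element and then GFP in the −1 frame, so GFP appears only after frameshifting.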

This experiment relates to HEK293T. The experiment is described as follows: percent viability (nuclei count) relative to control; higher = more viable cells. The note with it: 10 µM; 24 h.
For the compound `CSCC1CN(/N=C/c2ccc([N+](=O)[O-])o2)C(=O)O1` (stereo unspecified) [nifuratel], the percent viability came out at 230%.
The value for `CCN1CCCC1CNC(=O)c1cc(S(N)(=O)=O)ccc1OC` (stereo unspecified) was 232%; that for `Nc1ccc(S(=O)(=O)Nc2ccccn2)cc1` [sulfapyridine] was 169%.
The value for `CCOc1ccccc1C(N)=O` [ethenzamide] was 227%.
The value for `Cc1c(O)cccc1C(=O)N[C@@H](CSc1ccccc1)[C@H](O)CN1C[C@H]2CCCC[C@H]2C[C@H]1C(=O)NC(C)(C)C` [nelfinavir] was 172%; that for `CCCCC1C(=O)N(c2ccccc2)N(c2ccc(O)cc2)C1=O` (stereo unspecified) [oxyphenbutazone] was 91.6%.
Take `Cc1cc(C(=O)NCCc2ccc(S(=O)(=O)NC(=O)NN3CCCCCC3)cc2)no1` [glisoxepide]: the percent viability was 399%.
The value for `COc1ccccc1O` [Guaiacol] was 164%; that for `CCCCC(F)(F)[C@@]1(O)CC[C@H]2[C@@H](CC(=O)[C@@H]2CCCCCCC(=O)O)O1` [lubiprostone] was 211%.
Regarding `CN(C)CCN(Cc1cccs1)c1ccccn1` [methapyrilene], the percent viability worked out at 296%.
Then `CN1CCC[C@@H]1CCO[C@](C)(c1ccccc1)c1ccc(Cl)cc1` [Clemastine], with 398%.
Turning to `CCCCN1CCCC[C@H]1C(=O)Nc1c(C)cccc1C` [levobupivacaine], the percent viability was 231%.
The value for `CC(Cc1ccccc1)NN` (stereo unspecified) [pheniprazine] was 143%; that for `CCC=CCC=CCC=CCC=CCC=CCC=CCCC(=O)O` was 50.3%.
Then `CN(C)S(=O)(=O)c1ccc2c(c1)N(CCCN1CCC(CCO)CC1)c1ccccc1S2` [pipotiazine], with 172%.
Then `CC1(C)S[C@@H]2[C@H](NC(=O)[C@H](C(=O)O)c3ccsc3)C(=O)N2[C@H]1C(=O)O` [ticarcillin], with 159%.
